Results on two substances are retold here after PMC6349933.

By UniProt entry, the sequences of proteins in these tests, tags left out. Where a name states a change or a piece, a line headed by the entry shows the natural chain unless it says otherwise.
UniProt O82481: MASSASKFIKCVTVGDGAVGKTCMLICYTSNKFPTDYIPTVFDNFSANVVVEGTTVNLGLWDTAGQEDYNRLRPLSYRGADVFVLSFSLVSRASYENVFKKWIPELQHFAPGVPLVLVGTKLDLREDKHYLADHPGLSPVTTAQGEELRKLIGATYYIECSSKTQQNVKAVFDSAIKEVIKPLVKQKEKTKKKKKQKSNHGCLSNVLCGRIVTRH
UniProt Q9C6F8: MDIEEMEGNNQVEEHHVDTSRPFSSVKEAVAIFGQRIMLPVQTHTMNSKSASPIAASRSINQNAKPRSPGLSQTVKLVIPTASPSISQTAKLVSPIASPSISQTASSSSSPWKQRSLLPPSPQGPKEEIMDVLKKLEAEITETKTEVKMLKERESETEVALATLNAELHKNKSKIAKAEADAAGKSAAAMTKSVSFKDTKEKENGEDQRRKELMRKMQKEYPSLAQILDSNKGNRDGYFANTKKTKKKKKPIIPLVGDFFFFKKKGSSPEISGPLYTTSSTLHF

Results are given in words; binding and its absence hold for the method and conditions named. For some of these results: Binding calls can cover weak binding; strength is not graded here. For some of these results: In cells and extracts the contact can be indirect.

Experiment [1] deals with 6× His-fused BDR1 (Arabidopsis thaliana) (UniProt Q9FG09). Briefly: pull-down; 1 μg of recombinant proteins mixed, room temperature 10 min; 6× His-BDR1 held on Ni Sepharose 6 Fast Flow resin; washed with Tris buffer (50 mM Tris-HCl, pH 7.5, 150 mM NaCl); western with anti-His and anti-GST; both purified.
Experiment [2] addresses cEYFP-ROP11G17V (Arabidopsis) (UniProt O82481). Briefly: split reporter; BiFC with halves of EYFP (nEYFP, cEYFP); transient co-expression in N. benthamiana (tobacco) leaf epidermal cells, estradiol-induced.
The target of experiment [3] is cEYFP-ROP11T22N (Arabidopsis) (UniProt O82481). The experiment is described as above.
Experiment [4] addresses cEYFP-ROP11 (Arabidopsis) (UniProt O82481). The description is as above.

Turning to GST-WAL (from UniProt Q9C6F8), in experiment [1], the binding result is given as “binds”.
Regarding BDR1-nEYFP (from UniProt Q9FG09), the binding entry was “binds” in experiment [2], “no binding” in experiment [3] and “binds” in experiment [4].
